Tested on: MDA-MB-231/ADR (Adriamycin-resistant MDA-MB-231 cell line)
Assay: MTT antiproliferative assay, MDA-MB-231/ADR
Format: cell-based, human
Procedure: The antiproliferative activity and cytotoxicity of ART–isatin hybrids 4a–k against MCF-7 (CL-0149, purchased from Procell), MDA-MB-231 (CL-0150A, purchased from Procell), and MDA-MB-231/ADR (AC337895, purchased from CASMART) breast cancer cell lines, as well as MCF-10A (CL-0525, purchased from Procell), were assessed by the 3-(4,5-dimethylthiazol-2-yl)-2,5-diphenyltetrazolium bromide (MTT) assay. ART, DHA, and Adriamycin (ADR) were used as positive controls. The selectivity index (SI: IC50(MCF-10A)/IC50(MCF-7)) and resistance index (RI: IC50(MDA-MB-231/ADR)/IC50(MDA-MB-231)) are presented in Table 3.
MCF-7, MDA-MB-231 and MDA-MB-231/ADR breast cancer cells (2×10^3) were plated in each well of a 96-well plate and were allowed to adhere and spread for 24 h. Cells were treated with a range of different concentrations of ART-isatin hybrids 4a-k (1, 5, 10, 20, 50, 100 µM) and reference drugs artemisinin, dihydroartemisinin, and adriamycin (1, 5, 10, 20, 50, 100 µM) and were cultured for 24 h at 37 °C. 3-(4,5-dimethyl-2-thiazolyl)-2,5-diphenyltetrazolium bromide (MTT) solution (10 µL) was added to each well, and the cultures were incubated for an additional 4 h. A further 100 µL of […] was added and incubation continued overnight. The absorbance was read at 540 nm in EnSpire, multimode reader and IC50 concentration was calculated and indicated as means SD of three in-dependent experiments. The percentage relative cell viability was determined according to the following formula: Percentage cell viability = A at 570 nm of treated samples/A at 570 nm of untreated samples × 100.
The statistical analysis was performed using Excel © and IC50 values were estimated using GraphpadPrism5 software (Hearne Scientific Software). The experiments were performed in duplicate and the statistical significance was calculated using the student’s t-test. A p-value of less than 0.05 was used to estimate the significance of the observations. A Z-factor was calculated for each 96-well plate and assays having Z-factor above 0.05 were included in the statistical analysis.

| SMILES | RI, resistance index, IC50(MDA-MB-231/ADR)/IC50(MDA-MB-231) |
| --- | --- |
| CCON=C1C(=O)N(CCOC2O[C@@H]3O[C@@]4(C)CC[C@H]5[C@H](C)CC[C@@H]([C@H]2C)[C@@]35OO4)c2ccc(F)cc21 (stereo partly drawn) [Hybrid 4h, 3-(ethoxyimino)-5-fluoro-1-(2-(((3R,5aS,6R,8aS,9R,12R,12aR)-3,6,9-trimethyldecahydro-12H-3,12-epoxy[1,2]dioxepino[4,3-i]isochromen-10-yl)oxy)ethyl)indolin-2-one] | 1.28 |
| CO/N=C1/C(=O)N(CCOC2O[C@@H]3O[C@@]4(C)CC[C@H]5[C@H](C)CC[C@@H]([C@H]2C)[C@@]35OO4)c2ccc(F)cc21 (stereo partly drawn) [Hybrid 4e, (E)-5-fluoro-3-(methoxyimino)-1-(2-(((3R,5aS,6R,8aS,9R,12R,12aR)-3,6,9-trimethyldecahydro-12H-3,12-epoxy[1,2]dioxepino[4,3-i]isochromen-10-yl)oxy)ethyl)indolin-2-one] | 1.30 |
| COc1ccc2c(c1)C(=O)C(=O)N2CCOC1O[C@@H]2O[C@@]3(C)CC[C@H]4[C@H](C)CC[C@@H]([C@H]1C)[C@@]24OO3 (stereo partly drawn) [Hybrid 4c, 5-methoxy-1-(2-(((3R,5aS,6R,8aS,9R,12R,12aR)-3,6,9-trimethyldecahydro-12H-3,12-epoxy[1,2]dioxepino[4,3-i]isochromen-10-yl)oxy)ethyl)indoline-2,3-dione] | 0.93 |
| C[C@H]1[C@@H](O)O[C@@H]2O[C@@]3(C)CC[C@H]4[C@H](C)CC[C@@H]1[C@@]24OO3 [DHA, dihydroartemisinin, reference compound] | 1.18 |
| C[C@@H]1CC[C@H]2[C@@H](C)C(OCCN3C(=O)C(=O)c4cc(F)ccc43)O[C@@H]3O[C@@]4(C)CC[C@@H]1[C@]32OO4 (stereo partly drawn) [Hybrid 4b, 5-fluoro-1-(2-(((3R,5aS,6R,8aS,9R,12R,12aR)-3,6,9-trimethyldecahydro-12H-3,12-epoxy[1,2]dioxepino[4,3-i]isochromen-10-yl)oxy)ethyl)indoline-2,3-dione] | 1.15 |
| C[C@@H]1CC[C@H]2[C@@H](C)C(=O)O[C@@H]3O[C@@]4(C)CC[C@@H]1[C@]32OO4 [ART, artemisinin] | > 1.38 |
| C[C@@H]1CC[C@H]2[C@@H](C)C(OCCN3C(=O)C(=O)c4ccccc43)O[C@@H]3O[C@@]4(C)CC[C@@H]1[C@]32OO4 (stereo partly drawn) [Hybrid 4a, 1-(2-(((3R,5aS,6R,8aS,9R,12R,12aR)-3,6,9-trimethyldecahydro-12H-3,12-epoxy[1,2]dioxepino[4,3-i]isochromen-10-yl)oxy)ethyl)indoline-2,3-dione] | 0.65 |
| CCON=C1C(=O)N(CCOC2O[C@@H]3O[C@@]4(C)CC[C@H]5[C@H](C)CC[C@@H]([C@H]2C)[C@@]35OO4)c2ccccc21 (stereo partly drawn) [Hybrid 4g, 3-(ethoxyimino)-1-(2-(((3R,5aS,6R,8aS,9R,12R,12aR)-3,6,9-trimethyldecahydro-12H-3,12-epoxy[1,2]dioxepino[4,3-i]isochromen-10-yl)oxy)ethyl)indolin-2-one] | 0.75 |
| CON=C1C(=O)N(CCOC2O[C@@H]3O[C@@]4(C)CC[C@H]5[C@H](C)CC[C@@H]([C@H]2C)[C@@]35OO4)c2ccc(OC)cc21 (stereo partly drawn) [Hybrid 4f, 5-methoxy-3-(methoxyimino)-1-(2-(((3R,5aS,6R,8aS,9R,12R,12aR)-3,6,9-trimethyldecahydro-12H-3,12-epoxy[1,2]dioxepino[4,3-i]isochromen-10-yl)oxy)ethyl)indolin-2-one] | 1.66 |
| CON=C1C(=O)N(CCOC2O[C@@H]3O[C@@]4(C)CC[C@H]5[C@H](C)CC[C@@H]([C@H]2C)[C@@]35OO4)c2ccccc21 (stereo partly drawn) [Hybrid 4d, 3-(methoxyimino)-1-(2-(((3R,5aS,6R,8aS,9R,12R,12aR)-3,6,9-trimethyldecahydro-12H-3,12-epoxy[1,2]dioxepino[4,3-i]isochromen-10-yl)oxy)ethyl)indolin-2-one] | 1.22 |
| CCON=C1C(=O)N(CCOC2O[C@@H]3O[C@@]4(C)CC[C@H]5[C@H](C)CC[C@@H]([C@H]2C)[C@@]35OO4)c2ccc(OC)cc21 (stereo partly drawn) [Hybrid 4i, 3-(ethoxyimino)-5-methoxy-1-(2-(((3R,5aS,6R,8aS,9R,12R,12aR)-3,6,9-trimethyldecahydro-12H-3,12-epoxy[1,2]dioxepino[4,3-i]isochromen-10-yl)oxy)ethyl)indolin-2-one] | 1.04 |

From article PMC10620963, “Two-carbon tethered artemisinin–isatin hybrids: design, synthesis, anti-breast cancer potential, and in silico study” (Frontiers in Molecular Biosciences, 2023)
